Drawing on article PMC7819943, “Rice protein-binding microarrays: a tool to detect cis-acting elements near promoter regions in rice”, this text covers binding signal for 42 sequences.

The other results are listed elsewhere or left out.

The target in the assay is T1, OsSMF1 (Oryza sativa, UniProt Q6ZLB0 1-436).
T1 sequence: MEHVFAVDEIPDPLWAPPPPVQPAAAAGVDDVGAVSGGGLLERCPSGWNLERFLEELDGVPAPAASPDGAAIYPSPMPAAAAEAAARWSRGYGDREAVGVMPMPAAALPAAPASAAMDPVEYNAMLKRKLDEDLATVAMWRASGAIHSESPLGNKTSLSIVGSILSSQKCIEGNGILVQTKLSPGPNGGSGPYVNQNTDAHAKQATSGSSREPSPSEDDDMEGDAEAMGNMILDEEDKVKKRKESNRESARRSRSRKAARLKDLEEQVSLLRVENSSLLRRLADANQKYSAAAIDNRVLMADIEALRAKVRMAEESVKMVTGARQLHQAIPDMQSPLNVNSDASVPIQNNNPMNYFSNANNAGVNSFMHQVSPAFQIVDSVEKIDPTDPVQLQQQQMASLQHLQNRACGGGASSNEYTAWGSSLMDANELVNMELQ
The assay is described as follows: protein-binding microarray (RPBM); PBS, 2% BSA, 51.3 ng/ul salmon testes DNA, 50 uM zinc acetate, 200 nM TF, 25 C, 1 h; high values mean tight binding. The conditions noted are these: protein: recombinant; tags: N-terminal polyhistidine and DsRed monomer fusion (pET32a); chain copies: 2; label: CyDye5-dUTP incorporated in the synthesized complementary strand; 3' TTTTT single-stranded linker to array surface; dsDNA, one strand shown. An outline of the steps:
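Binding signal is defined as the fluorescence intensity of each feature in arbitrary units, read on an Axon 4000B scanner. Transcription factors with N-terminal polyhistidine and DsRed fusions came from E. coli BL21-CodonPlus and were purified on Ni–NTA. They were incubated at 200 nM for 1 h at 25 °C on a custom Agilent array that had been made double-stranded with Cy5-dUTP, with 50 µM zinc acetate present, and the array was washed.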
As to “CTGACGATGACTAGTGTGGACGACGAGGGTGTCGATGTGCCGGAGTCACCTAGTGCAG”, the binding signal is 3340 fluorescence intensity (a.u.). Under “TATTCTTCTGATTCATCCTGTTGCTGTCTGTCAAGTGGGACGGAGTCACCTAGTGCAG” stands 3220 fluorescence intensity (a.u.); under “CCTGTCAAATTTGCCTAACCTTAGACGTGGCAAACTGTGGCGGAGTCACCTAGTGCAG”, 3670 fluorescence intensity (a.u.); under “AGAATTTCAACCGGAGTGACATCACATAATTACATATGTGCGGAGTCACCTAGTGCAG”, 5940 fluorescence intensity (a.u.). Regarding “CAGTTTGTGCTGCCACTTTATTTGTACACGCCAGTGACTGCGGAGTCACCTAGTGCAG”, the binding signal is 6360 fluorescence intensity (a.u.). Under “GATGTTGATTAGGATGTGACGTGCATACGTGTAGTAGGGTCGGAGTCACCTAGTGCAG” stands 13900 fluorescence intensity (a.u.). “TACTCTACGTGGCGTGGCAGTCGTCCTCCTCCCTCCCACGCGGAGTCACCTAGTGCAG”: the binding signal is 8390 fluorescence intensity (a.u.). Regarding “AGCTAGAACGCACAGACTTTAGGCTTTAGGTACGATGATGCGGAGTCACCTAGTGCAG”, the binding signal is 43300 fluorescence intensity (a.u.). Under “CTTTTAGAGCACCCATAATGGTAAAATAAGATGCTCTCTACGGAGTCACCTAGTGCAG” stands 30100 fluorescence intensity (a.u.); under “TTATCACCAACGCGGAGTCACCCGAGCCCACATCGCGTGACGGAGTCACCTAGTGCAG”, 4780 fluorescence intensity (a.u.). As for “TATTGGGCAAGAGTACGTCGTTTGCCACCTTGGCCGCCACCGGAGTCACCTAGTGCAG”, the figure is 3500 fluorescence intensity (a.u.). As for “ATTACTGGCTCGGCTCGATGACACCTATATTATAGGTGTCCGGAGTCACCTAGTGCAG”, the figure is 3550 fluorescence intensity (a.u.); as for “GGTCTTCATATGACGTGGCACTGACGTGGCGCTTATGTGGCGGAGTCACCTAGTGCAG”, 32100 fluorescence intensity (a.u.); as for “TCCCTGCGAAATTGTACACATCAACACAACATAAGGTCGACGGAGTCACCTAGTGCAG”, 3700 fluorescence intensity (a.u.). With “AAGCAGCTCGCTCGAGTCGAGCTCCCCTCTCCGCCCGGGGCGGAGTCACCTAGTGCAG”, the binding signal is 3920 fluorescence intensity (a.u.). Regarding “AAGGCTTTTCGTAAGTAGTGCGTGCGTGCAGTTACAGAGCCGGAGTCACCTAGTGCAG”, the binding signal is 3290 fluorescence intensity (a.u.). “GGAATATAAGCCGCCAAGCTCCATGTCGTCAGTGCTGATGCGGAGTCACCTAGTGCAG”: the binding signal was 5020 fluorescence intensity (a.u.). Under “GACTTGTCCATGCATGCATGCATGACTTGTGTTCAGCCACCGGAGTCACCTAGTGCAG” stands 3700 fluorescence intensity (a.u.). As for “AGGGATGTTTCTGTAATTTCACACAAAGAAGAGGGTACAACGGAGTCACCTAGTGCAG”, the figure is 3220 fluorescence intensity (a.u.); as for “CGTAGGACAGGAGTATGTAACGTGCCTCGTCAACACGACGCGGAGTCACCTAGTGCAG”, 5130 fluorescence intensity (a.u.); as for “TCCAACCATGCCACCTCGGATCACATGGCCAGAATGTCCACGGAGTCACCTAGTGCAG”, 4580 fluorescence intensity (a.u.). As for “TCGCCGAATCACGACACTGCTGCCGACGACGATGGTGACGCGGAGTCACCTAGTGCAG”, the binding signal was 3930 fluorescence intensity (a.u.). Take “GAGCTGGTAGATTGTAGTACGTGGTAGATACTTACTTACTCGGAGTCACCTAGTGCAG”: the binding signal was 3800 fluorescence intensity (a.u.). Under “GATAAAGTTTACCTGTTTTCGATTGGTTGGCTGACGTGTCCGGAGTCACCTAGTGCAG” stands 16500 fluorescence intensity (a.u.); under “TAGCCCGACGTGACGCTGAGTCAGCGTGGGACCCACGTGGCGGAGTCACCTAGTGCAG”, 19000 fluorescence intensity (a.u.); under “AGAGAGCCGAGCTAACGACCTCATCGCTGACGCCACCGCACGGAGTCACCTAGTGCAG”, 5150 fluorescence intensity (a.u.). Under “CATTTCACTGATCCATGGAAGTTTGCGCGTGGTAGATCATCGGAGTCACCTAGTGCAG” stands 33800 fluorescence intensity (a.u.); under “TTGGTCACTGCTCACACTGACCAGTGAGTCAGTGACCATACGGAGTCACCTAGTGCAG”, 15200 fluorescence intensity (a.u.); under “CTTGTTTGCCAAGAATAATTGGGAAGAGGAATGAATACAACGGAGTCACCTAGTGCAG”, 28600 fluorescence intensity (a.u.).

As for “GTAGATGCACCCCTGGAAAACCCAGGTAATTACGAACTAGCGGAGTCACCTAGTGCAG”, the binding signal is 3850 fluorescence intensity (a.u.). Under “AGCCTAGGAGGAGATGTGACCTCACAGTCAGGTGTCATCGCGGAGTCACCTAGTGCAG” stands 3660 fluorescence intensity (a.u.). As for “CCTTCCCCGCCAGCCGCCGGCCACGCCGGCTCTCCTCCCCCGGAGTCACCTAGTGCAG”, the figure is 3480 fluorescence intensity (a.u.); as for “TTTTGAGCCTAGTTAGTCCATGATTAGCCATAAATGCTACCGGAGTCACCTAGTGCAG”, 4540 fluorescence intensity (a.u.). Under “CTAACAAAGCCACAGTATGCTCACACGTGTACACATCTCCCGGAGTCACCTAGTGCAG” stands 8120 fluorescence intensity (a.u.); under “CGCCGCCGTGGATCCGCCTCCCCTCCGCGCGCGCATCCCGCGGAGTCACCTAGTGCAG”, 3390 fluorescence intensity (a.u.). Consider “CGTCGTCCCCGACGAGCTCCTGACCGCGCCGCCGTCCGTCCGGAGTCACCTAGTGCAG”, for which the binding signal is 3380 fluorescence intensity (a.u.). Regarding “CACTCTTGAGTTAAGTATGACTTGTGTGCTGCAGCCAAGCCGGAGTCACCTAGTGCAG”, the binding signal is 3530 fluorescence intensity (a.u.). Under “CCAAGGGTGGGGCCTCTCGTCGTCTCGTCTCCTCTCGTCTCGGAGTCACCTAGTGCAG” stands 3190 fluorescence intensity (a.u.); under “AATTCCTCTCTCTCTCTCCCCTCCCATGGCGTCACTGTCGCGGAGTCACCTAGTGCAG”, 6120 fluorescence intensity (a.u.). Under “GGAGTTTGTGATAACTCGCACGGCCTATGCGTACGTAGCACGGAGTCACCTAGTGCAG” stands 4680 fluorescence intensity (a.u.); under “AAAGTTGTAAAAGATCACACGTATCATGATATGTGGCACCCGGAGTCACCTAGTGCAG”, 4850 fluorescence intensity (a.u.); under “CCGCATGATGTCGTCGTGTATACGGCTATGCACTTGTGTCCGGAGTCACCTAGTGCAG”, 3840 fluorescence intensity (a.u.).
